Source: paper doi:10.1101/211029
No constants are given. Whether binding was seen depends on the method and setting. Binding seen in cells or lysates may run through a third protein.

Sequences of proteins named here, by UniProt entry; tags and fusion partners are left off.
UniProt P18901: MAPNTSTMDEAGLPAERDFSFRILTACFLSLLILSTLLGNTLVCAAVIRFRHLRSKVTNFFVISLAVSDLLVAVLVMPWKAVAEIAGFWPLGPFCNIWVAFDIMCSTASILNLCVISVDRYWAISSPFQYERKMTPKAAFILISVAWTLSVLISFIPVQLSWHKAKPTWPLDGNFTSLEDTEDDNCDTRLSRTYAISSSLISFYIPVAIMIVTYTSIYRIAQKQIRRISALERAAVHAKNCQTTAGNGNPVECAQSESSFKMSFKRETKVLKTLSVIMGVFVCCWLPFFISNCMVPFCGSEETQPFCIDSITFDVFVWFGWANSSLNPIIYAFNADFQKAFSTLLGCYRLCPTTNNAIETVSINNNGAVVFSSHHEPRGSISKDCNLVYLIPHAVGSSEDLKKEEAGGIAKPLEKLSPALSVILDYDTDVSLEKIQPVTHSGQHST

Target: Dopamine D1 receptor (rat (endogenous in nucleus accumbens)) (UniProt P18901)
Experiment: co-IP

binding: no binding
B1: gephyrin, an inhibitory synapse post-synaptic scaffold (protein, UniProt Q03555 1-768)
chain: MATEGMILTNHDHQIRVGVLTVSDSCFRNLAEDRSGINLKDLVQDPSLLGGTISAYKIVPDEIEEIKETLIDWCDEKELNLILTTGGTGFAPRDVTPEKFPTFPFCGLQKGATKEVIEREAPGMALAMLMGSLNVTPLGMLSRPVCGIRGKTLIINLPGSKKGSQECFQFILPALPHAIDLLRDAIVKVKEVHDELEDLPSPPPPLSPPPTTSPHKQTEDKGVQCEEEEEEKKDSGVASTEDSSSSHITAAALAAKIPDSIISRGVQVLPRDTASLSTTPSESPRAQATSRLSTASCPTPKQIRRPDESKGVASRVGSLKVQSRCSSKENILRASHSAVDITKVARRHRMSPFPLTSMDKAFITVLEMTPVLGTEIINYRDGMGRVLAQDVYAKDNLPPFPASVKDGYAVRAADGPGDRFIIGESQAGEQPTQTVMPGQVMRVTTGAPIPCGADAVVQVEDTELIRESDDGTEELEVRILVQARPGQDIRPIGHDIKRGECVLAKGTHMGPSEIGLLATVGVTEVEVNKFPVVAVMSTGNELLNPEDDLLPGKIRDSNRSTLLATIQEHGYPTINLGIVGDNPDDLLNALNEGISRADVIITSGGVSMGEKDYLKQVLDIDLHAQIHFGRVFMKPGLPTTFATLDIDGVRKIIFALPGNPVSAVVTCNLFVVPALRKMQGILDPRPTIIKARLSCDVKLDPRPEYHRCILTWHHQEPLPWAQSTGNQMSSRLMSMRSANGLLMLPPKTEQYVELHKGEVVDVMVIGRL
